Laboratory results reported in publication PMC8869194.
These are yes or no findings as the source states them, for the method shown. Binding seen in cells or lysates may run through a third protein. Some entries that bind do so weakly or less than the wild type.

By UniProt entry, the sequences of proteins in these tests, tags left out. Where a name states a change or a piece, a line headed by the entry shows the natural chain unless it says otherwise.
UniProt Q60613: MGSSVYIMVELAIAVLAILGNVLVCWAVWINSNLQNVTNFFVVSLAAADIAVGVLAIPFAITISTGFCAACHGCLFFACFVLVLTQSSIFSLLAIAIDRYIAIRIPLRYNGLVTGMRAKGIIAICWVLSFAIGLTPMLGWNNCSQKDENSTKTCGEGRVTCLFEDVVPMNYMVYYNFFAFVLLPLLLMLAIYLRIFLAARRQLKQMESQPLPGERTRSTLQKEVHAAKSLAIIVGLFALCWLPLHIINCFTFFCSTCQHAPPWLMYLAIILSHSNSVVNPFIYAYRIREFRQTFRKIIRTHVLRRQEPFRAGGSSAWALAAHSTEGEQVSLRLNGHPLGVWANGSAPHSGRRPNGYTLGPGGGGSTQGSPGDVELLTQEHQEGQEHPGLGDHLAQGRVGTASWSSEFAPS

Tests used:
[1] = molecular target: T1, adenosine A3 receptor (mouse (endogenous in primary neurons and microglia)) (UniProt Q61618); test: proximity ligation; in situ PLA (Duolink) in fixed, permeabilised primary striatal, hippocampal and cortical neurons from C57BL/6J mouse fetuses; mouse anti-A2AR and rabbit anti-A3R; negative control without anti-A3R
T1 sequence: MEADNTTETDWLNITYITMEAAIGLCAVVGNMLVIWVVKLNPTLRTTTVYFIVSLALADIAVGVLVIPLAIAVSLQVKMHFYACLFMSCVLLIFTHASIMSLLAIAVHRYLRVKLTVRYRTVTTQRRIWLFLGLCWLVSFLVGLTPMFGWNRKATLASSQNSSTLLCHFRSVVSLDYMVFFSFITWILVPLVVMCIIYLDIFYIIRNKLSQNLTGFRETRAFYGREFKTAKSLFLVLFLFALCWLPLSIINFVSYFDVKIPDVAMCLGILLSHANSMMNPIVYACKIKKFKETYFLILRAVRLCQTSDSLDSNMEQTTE

[2] = molecular target: T1, adenosine A3 receptor (mouse (endogenous in primary neurons and microglia)); test: proximity ligation; in situ PLA (Duolink) in fixed, permeabilised primary microglia from mouse pups: resting, activated with LPS and IFN-gamma, and from APPSw,Ind transgenic mice; mouse anti-A2AR and rabbit anti-A3R; negative control without anti-A3R

For “adenosine A2A receptor (from UniProt Q60613 1-410)”, the binding [1] was “binds” and the binding [2] was “binds”.
